Measured values as given in PMC11534337.

T1: SIRT4 (human (endogenous in human TECs and HK2)) (UniProt Q9Y6E7)
T1 sequence: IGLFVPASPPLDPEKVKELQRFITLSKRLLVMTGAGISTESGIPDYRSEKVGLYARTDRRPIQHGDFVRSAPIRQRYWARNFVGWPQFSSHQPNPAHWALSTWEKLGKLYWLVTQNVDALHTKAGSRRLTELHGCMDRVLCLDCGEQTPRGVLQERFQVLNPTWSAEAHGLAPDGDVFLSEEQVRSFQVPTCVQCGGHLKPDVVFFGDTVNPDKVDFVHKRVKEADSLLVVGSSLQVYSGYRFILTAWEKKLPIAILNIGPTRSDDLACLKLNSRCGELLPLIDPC


Molecular target: T1, SIRT4 (human (endogenous in human TECs and HK2))
Assay: affinity purification with mass spectrometry; RIME: human TECs treated with TGF-β1 or DMSO, cross-linked in 1% formaldehyde, sonicated, immunoprecipitated with a SIRT4 antibody; proteins in three of three replicates and in no IgG control

Binder | binding
TSR1 (protein, UniProt Q2NL82 1-804) MAAHRPGPLKQQNKAHKGGRHRGRGSAQRDGKGRLALKTLSKKVRKELSRVDQRHRASQLRKQKKEAVLAEKRQLGGKDGPPHQVLVVPLHSRISLPEAMQLLQDRDTGTVHLNELGNTQNFMLLCPRLKHRWFFTSARPGDLHVVLDMAKVADTILFLLDPLEGWDSTGDYCLSCLFAQGLPTYTLAVQGISGLPLKKQIDTRKKLSKAVEKRFPHDKLLLLDTQQEAGMLLRQLANQKQQHLAFRDRRAYLFAHAVDFVPSEENNLVGTLKISGYVRGQTLNVNRLLHIVGYGDFQMKQIDAPGDPFPLNPRGIKPQKDPDMAMEICATDAVDDMEEGLKVLMKADPGRQESLQAEVIPDPMEGEQTWPTEEELSEAKDFLKESSKVVKKVPKGTSSYQAEWILDGGSQSGGEGDEYEYDDMEHEDFMEEESQDESSEEEEEYETMTIGESVHDDLYDKKVDEEAEAKMLEKYKQERLEEMFPDEVDTPRDVAARIRFQKYRGLKSFRTSPWDPKENLPQDYARIFQFQNFTNTRKSIFKEVEEKEVEGAEVGWYVTLHVSEVPVSVVECFRQGTPLIAFSLLPHEQKMSVLNMVVRRDPGNTEPVKAKEELIFHCGFRRFRASPLFSQHTAADKHKLQRFLTADMALVATVYAPITFPPASVLLFKQKSNGMHSLIATGHLMSVDPDRMVIKRVVLSGHPFKIFTKMAVVRYMFFNREDVLWFKPVELRTKWGRRGHIKEPLGTHGHMKCSFDGKLKSQDTVLMNLYKRVFPKWTYDPYVPEPVPWLKSEISSTVPQGGME | binds
SART1 (protein, UniProt O43290 1-800) MGSSKKHRGEKEAAGTTAAAGTGGATEQPPRHREHKKHKHRSGGSGGSGGERRKRSRERGGERGSGRRGAEAEARSSTHGRERSQAEPSERRVKREKRDDGYEAAASSKTSSGDASSLSIEETNKLRAKLGLKPLEVNAIKKEAGTKEEPVTADVINPMALRQREELREKLAAAKEKRLLNQKLGKIKTLGEDDPWLDDTAAWIERSRQLQKEKDLAEKRAKLLEEMDQEFGVSTLVEEEFGQRRQDLYSARDLQGLTVEHAIDSFREGETMILTLKDKGVLQEEEDVLVNVNLVDKERAEKNVELRKKKPDYLPYAEDESVDDLAQQKPRSILSKYDEELEGERPHSFRLEQGGTADGLRERELEEIRAKLRLQAQSLSTVGPRLASEYLTPEEMVTFKKTKRRVKKIRKKEKEVVVRADDLLPLGDQTQDGDFGSRLRGRGRRRVSEVEEEKEPVPQPLPSDDTRVENMDISDEEEGGAPPPGSPQVLEEDEAELELQKQLEKGRRLRQLQQLQQLRDSGEKVVEIVKKLESRQRGWEEDEDPERKGAIVFNATSEFCRTLGEIPTYGLAGNREEQEELMDFERDEERSANGGSESDGEENIGWSTVNLDEEKQQQDFSASSTTILDEEPIVNRGLAAALLLCQNKGLLETTVQKVARVKAPNKSLPSAVYCIEDKMAIDDKYSRREEYRGFTQDFKEKDGYKPDVKIEYVDETGRKLTPKEAFRQLSHRFHGKGSGKMKTERRMKKLDEEALLKKMSSSDTPLGTVALLQEKQKAQKTPYIVLSGSGKSMNANTITK | binds

Results are given in words; binding and its absence hold for the method and conditions named. Binding seen in cells or lysates may run through a third protein. These calls come from enrichment with a bait or labelling near it, and not all partners need be listed.
